Cell number change and AC50 data for 59 compounds are collected here from PubChem BioAssay AID2685 (National Center for Advancing Translational Sciences (NCATS), 2010).

The list shows a part of the results. These are further read-outs of the screen, such as a control signal, another cell line or another target. No call is given for them. The list favours compounds with an active or inconclusive main result. The note in brackets gives the kind of curve behind each potency; many fits are weak.

This test in a line: qHTS Assay for Lipid Storage Modulators in Drosophila S3 Cells.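 For Cell number change: cells counted by Cell Tracker Red CMTPX staining in the red channel.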 The conditions noted are these: BODIPY lipid droplet fluorescence, 18-24 h; for cell number change: measured here: cell count max response, cells fed with added oleic acid. In outline: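 Drosophila S3 cells loaded with oleic acid (400 uM, as added) and compounds at several concentrations; lipid droplets imaged by 488-nm laser-scanning cytometry, 500–530 nm intensity and object ratio to cell channel. Percent activity normalized to 20 uM Triacsin C.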
Background: Quantitative high-throughput screening tests each substance at several concentrations.

Setting [1] is: measured here: lipid fluorescence (Fed channel) AC50, cells fed with added oleic acid.
The mark [2] stands for this setting: measured here: cell number channel AC50, cells fed with added oleic acid.

By AC50 is commonly meant the concentration giving half of the maximal activity seen. High values mean weaker potency, low ones greater potency.

Regarding `COc1ccc(CN2C(=O)c3oc4ccccc4c(=O)c3C2c2ccc(O)c(OC)c2)cc1` (stereo not given), the cell number change was 18.4%. In addition, under setting [1], the AC50 is 23.1 µM [rising, single point].

Turning to `CCOC(=O)C1=C(C)Nc2sc(C(=O)c3ccc(OC)cc3)c(N)c2C1c1ccc(C(=O)OC)cc1` (stereo not given), the cell number change was -12.5%. Besides, the concentration at half-maximal activity (AC50) under setting [2] was 6.51 µM [rising, partial curve, poor fit]. Moreover, the AC50 under setting [1] is 6.51 µM [rising, partial curve, poor fit].

With `CCCCn1c(-c2ccccc2)cnc1SCC(=O)NCCc1ccc(OC)c(OC)c1`, the cell number change was -46.9%. Also, under setting [2], the half-maximal activity concentration (AC50) was 11.6 µM [falling, single point].

In the case of `Cc1noc2ncnc(Oc3ccc(F)cc3)c12`, the cell number change was found to be 17.7%. In addition, the AC50 under setting [1] was 8.2 µM [rising, partial curve].

`CN(C(=O)CO/N=C/c1ccc(Cl)cc1)c1ccccc1`: the cell number change was determined as 73.5%. Further, under setting [2], the AC50 was 29.1 µM [rising, single point].

For `O=[N+]([O-])c1ccc(N/N=C/c2cccc(O)c2O)cc1`, the cell number change was -33.6%. Under setting [1], the AC50 was 29.1 µM [falling, single point].

Consider `CC(C)c1ccccc1NC(=S)NC(C)c1ccccc1` (stereo not given), for which the AC50 was 6.51 µM [rising, single point] under setting [2] and 2.91 µM [falling, partial curve] under setting [1].

Turning to `Cc1c(O)ccc(C(=O)CN2CCN(Cc3ccccc3)CC2)c1O`, the cell number change stood at 10.1%.

As to `Cc1ccc(CNC(=O)C2CCCN2S(=O)(=O)c2ccc(Cl)cc2)cc1` (stereo not given), the cell number change came to 18.2%. Moreover, the AC50 under setting [1] was 29.1 µM [rising, single point].

Take `CCOC(=O)c1cnc2c(Cl)cc(Cl)cc2c1NCCCN1CCOCC1`: the cell number change amounted to 17.5%.

As for `COc1ccc(/C=C/C(=O)Nc2cccc(S(=O)(=O)NC3=NCCCCC3)c2)cc1OC`, the cell number change is -9.22%. Further, the concentration at half-maximal activity (AC50) under setting [1] was 4.11 µM [falling, full curve].

Consider `O=C(NCc1n[nH]c(=S)n1-c1ccc(Cl)c(Cl)c1)c1ccc(S(=O)(=O)N2CCCCC2)cc1`, for which the cell number change stood at 3.95%.

For `O=C(c1ccc2nc[nH]c2c1)N1CCN(c2ncc(C(F)(F)F)cc2Cl)CC1`, the concentration at half-maximal activity (AC50) under setting [1] was 29.1 µM [falling, single point].

As to `Cc1csc(=O)n1CCC(=O)OCC(=O)c1ccc(Br)cc1`, the cell number change was -25.1%. Under setting [1], the AC50 is 0.58 µM [rising, single point].

Take `O=C(Nc1nncs1)c1cc2c(s1)CCC2`: the cell number change was determined as 6.56%. For the same compound, the AC50 under setting [1] is 9.2 µM [falling, partial curve, poor fit].

As for `CCCCn1c(N)c(N(CCOC)C(=O)COC(=O)COc2cc(C)ccc2Cl)c(=O)[nH]c1=O`, the cell number change came to 50%. For the same compound, the AC50 under setting [2] was 23.1 µM [rising, single point].

As for `O=C(CC12CC3CC(CC(C3)C1)C2)NCO`, the cell number change is -33%. Further, the half-maximal activity concentration (AC50) under setting [2] is 0.058 µM [falling, full curve]. Besides, the AC50 under setting [1] is 0.259 µM [falling, partial curve, poor fit].

Turning to `O=C(c1cc([N+](=O)[O-])ccc1N1CCOCC1)N1CCN(c2ccccc2)CC1`, the cell number change stood at 19.9%.

In the case of `Cc1ccc(N2CCCCn3c2nc2c3c(=O)n(CC(=O)O)c(=O)n2C)cc1`, the cell number change was 9.32%. Moreover, under setting [1], the AC50 is 20.6 µM [rising, single point].

Turning to `Cc1cc(C(C)(C)C)cc(C)c1COC(=O)CN1C(=O)NC2(CCCC2)C1=O`, the cell number change was -41.1%. Further, the AC50 under setting [2] is 32.6 µM [falling, single point]. Besides, under setting [1], the AC50 is 23.1 µM [falling, single point].

As for `CCNc1nc(=S)nc(NCc2ccccc2)[nH]1`, the cell number change stood at 47.1%.

Turning to `COc1cccc2c1OCC(CN1CCN(C3CCCCC3)C(CCO)C1)=C2` (stereo not given), the cell number change is -14%.

In the case of `COc1ccc(/C=N/NC(=O)c2c(Br)cnn2C)c2ccccc12`, the cell number change is -3.66%. Moreover, the half-maximal activity concentration (AC50) under setting [2] was 0.291 µM [falling, full curve, poor fit]. In addition, under setting [1], the AC50 is 0.116 µM [falling, full curve].

As for `COc1ccc(C(=O)Nc2cc(C)nn2-c2ccc(C)cc2)cc1`, the cell number change came to 13.3%. Further, the AC50 under setting [1] was 29.1 µM [rising, single point].

Turning to `Cc1ccc(-c2cc(C(F)F)nc(S(C)(=O)=O)n2)cc1`, the cell number change was -60.2%. Under setting [2], the AC50 is 1.16 µM [falling, full curve]. Under setting [1], the AC50 was 1.3 µM [falling, full curve].

`CSc1ccccc1NC(=O)CN(C1CCCCC1)S(C)(=O)=O`: the cell number change is -72%. The AC50 under setting [2] is 25.9 µM [falling, partial curve].

As for `COc1ccc2nc(C)cc(SCC(=O)Nc3c(C)cccc3C)c2c1`, the cell number change is 15.9%. Besides, the AC50 under setting [1] is 6.51 µM [rising, single point].

Take `CCOC(=O)c1c(NC(=O)CSc2nnc(CNc3ccc(OC)cc3)n2C)sc(C)c1C`: the cell number change was determined as 1.86%. Also, the concentration at half-maximal activity (AC50) under setting [1] is 0.092 µM [rising, full curve, poor fit].

Take `CCN(CC)S(=O)(=O)c1cc(NC(=O)CNc2c(C)n(C)n(-c3ccccc3)c2=O)ccc1C`: the cell number change came out at 7.98%. In addition, the AC50 under setting [1] is 0.00411 µM [falling, full curve, poor fit].

In the case of `C=CCc1ccc(OCCCOc2ccc(C)cc2OC)c(OC)c1`, the cell number change worked out at 82.3%. For the same compound, the AC50 under setting [2] is 29.1 µM [rising, single point]. In addition, the AC50 under setting [1] is 29.1 µM [rising, single point].

Consider `O=C1/C(=C/c2ccc(N3CCOCC3)o2)SC(=Nc2ccccc2)N1CCc1c[nH]c2ccccc12`, for which the cell number change was -38.2%. The AC50 under setting [2] was 3.26 µM [rising, single point]. Under setting [1], the AC50 was 1.84 µM [falling, partial curve, poor fit].

Take `COc1ccc(C2CC(=O)c3ccccc3O2)cc1` (stereo not given): the cell number change was -5.95%. Also, the AC50 under setting [1] is 5.17 µM [rising, partial curve].

Take `O=C(CC1SC(N2CCOCC2)=NC1=O)Nc1cc([N+](=O)[O-])ccc1Cl` (stereo not given): the cell number change was -121%. The concentration at half-maximal activity (AC50) under setting [2] was 14.6 µM [falling, partial curve].

For the compound `CCOC(=O)c1cccnc1SCC(=O)N(C)c1ccccc1`, the cell number change came out at 34.6%. Moreover, the AC50 under setting [2] was 9.2 µM [rising, single point]. For the same compound, the AC50 under setting [1] is 18.4 µM [rising, partial curve].

Consider `N#CCN(C(=O)COC(=O)CCCNC(=O)c1ccc(Cl)cc1)c1ccccc1`, for which the cell number change stood at 23.1%. Moreover, under setting [1], the AC50 was 7.31 µM [rising, partial curve].

Regarding `CCCCCCCC(=O)N/N=C(\C)c1ccc(O)cc1O`, the cell number change was -35.2%. For the same compound, the AC50 under setting [2] is 5.8 µM [falling, full curve]. For the same compound, the AC50 under setting [1] is 5.8 µM [falling, full curve].

On to `Cc1cccc(C)c1Nc1c(-c2ccc(N3CCOCC3)cc2)nc2cnccn12`, for which, under setting [2], the AC50 was 0.411 µM [rising, full curve].

Regarding `COc1ccccc1N1CCN(C(=O)CSc2nnc(NC(=O)C3CC3)s2)CC1`, the cell number change was found to be 8.68%. Also, under setting [1], the AC50 was 23.1 µM [rising, single point].

As for `CN(C)C(=O)CSc1nc2ccccc2c(=O)[nH]1`, the cell number change amounted to 12.3%. Moreover, the AC50 under setting [1] was 0.58 µM [rising, single point].

With `CCOc1ccc(C(=O)NCC(=O)OCCCC(=O)c2ccc(F)cc2)cc1OCC`, the cell number change is -34.6%. The AC50 under setting [2] is 16.4 µM [falling, single point]. Further, the AC50 under setting [1] was 29.1 µM [falling, single point].

As to `C#CCOCCOCCOCCNc1nc(N2CCN(C(=O)[C@H]([C@@H](C)CC)n3cc([C@@H](N)Cc4ccc(O)cc4)nn3)CC2)nc(N2CCN(C(=O)[C@H](Cc3cc4ccccc4[nH]3)n3cc([C@@H](N)CC(C)C)nn3)CC2)n1`, the cell number change was -49.5%. In addition, the AC50 under setting [2] was 18.4 µM [falling, partial curve]. Further, under setting [1], the AC50 was 2.31 µM [falling, single point].

In the case of `C=CCN1C(=Nc2cccnc2)SCC1(O)c1ccc(C)cc1` (stereo not given), the cell number change is -22.6%. For the same compound, under setting [1], the AC50 is 8.2 µM [falling, partial curve, poor fit].

Regarding `O=C(CSc1nc2ccccc2c(=O)n1CC1CCCO1)Nc1ccc(F)cc1` (stereo not given), the cell number change was -6.96%.

Consider `CCCCCCc1cc2cc(S(=O)(=O)c3ccc(C)cc3)c(=O)oc2cc1O`, for which the cell number change was -38%. Moreover, the AC50 under setting [2] was 18.4 µM [falling, single point].

Turning to `Cc1ccc(/C=C(\NC(=O)c2ccccc2)C(=O)N2CCCCC2)cc1`, the cell number change came out at 14.4%. In addition, the AC50 under setting [1] was 4.11 µM [rising, single point].

`Cc1c(C(=O)Nc2ccc(S(=O)(=O)N3CCOCC3)cc2)cccc1[N+](=O)[O-]`: the cell number change is -13.1%. Further, the AC50 under setting [1] is 2.31 µM [falling, partial curve, poor fit].

Turning to `CCN(CC)S(=O)(=O)c1ccc(N2CCOCC2)c(NC(=O)C(C)(C)C)c1`, the cell number change worked out at 3.73%.

For the compound `CC(=O)c1c(C)n(C)c2ccc(O)cc12`, the cell number change turned out to be 73.3%. In addition, the AC50 under setting [2] was 18.4 µM [rising, single point].

With `CCCc1nc2c(nnn2Cc2ccccc2Cl)c(=O)[nH]1`, the cell number change worked out at 21.4%. Besides, under setting [1], the AC50 was 25.9 µM [rising, partial curve, poor fit].

In the case of `CCOC(=O)C1(CC)CC(CSc2nc3ccccc3[nH]2)OC1=O` (stereo not given), the cell number change turned out to be 14.1%. Further, the AC50 under setting [2] was 2.91 µM [rising, single point].

On to `Cc1ccc(CNC(=O)C2CCN(S(=O)(=O)c3c(C)noc3/C=C/c3ccco3)CC2)cc1`, for which the cell number change was -2.63%.

Consider `C=CCOc1ccc(C2NC(=O)c3ccccc3O2)cc1` (stereo not given), for which the cell number change worked out at 27.7%.

`CC(=O)c1cccc(NC(=O)CC2CCCC2)c1`: the cell number change is 14.8%.

For the compound `CCCCNC(=O)/C(=C/c1ccccc1)NC(C)=O`, the cell number change was 7.45%. Also, the AC50 under setting [1] was 29.1 µM [falling, single point].

Regarding `Cc1cc2c3ccccc3ncn2n1`, the cell number change came out at 10.4%. In addition, the concentration at half-maximal activity (AC50) under setting [1] was 1.16 µM [rising, full curve].

For the compound `CCCCn1c(N)c(N(CC)C(=O)c2cc(Br)ccc2Cl)c(=O)[nH]c1=O`, the cell number change is -6.42%. Further, the concentration at half-maximal activity (AC50) under setting [2] was 0.164 µM [falling, full curve, poor fit].

With `Cc1cc(OC(=O)c2ccccc2Cl)cc(=O)n1C`, the AC50 under setting [2] was 6.51 µM [rising, single point].

As to `COC(=O)c1ccc(OCC2c3cc(OC)c(OC)cc3CCN2C(=O)c2ccco2)cc1` (stereo not given), the cell number change is -4.46%. Also, the AC50 under setting [2] is 6.51 µM [falling, single point].

With `COc1cccc(C(=O)N2CCCC(CCC(=O)NCc3ccc(F)c(F)c3)C2)c1` (stereo not given), the cell number change is -55.1%. Moreover, under setting [2], the AC50 is 16.4 µM [falling, partial curve].
